PMC4687125
Results are given in words; binding and its absence hold for the method and conditions named. Some binding calls cover weakened binding; strength is not graded here. Tags and fused reporters may be left off the sequences shown.

Target: T1, serum response factor (SRF) (mouse (endogenous in NIH/3T3)) (UniProt Q9JM73)
T1 sequence: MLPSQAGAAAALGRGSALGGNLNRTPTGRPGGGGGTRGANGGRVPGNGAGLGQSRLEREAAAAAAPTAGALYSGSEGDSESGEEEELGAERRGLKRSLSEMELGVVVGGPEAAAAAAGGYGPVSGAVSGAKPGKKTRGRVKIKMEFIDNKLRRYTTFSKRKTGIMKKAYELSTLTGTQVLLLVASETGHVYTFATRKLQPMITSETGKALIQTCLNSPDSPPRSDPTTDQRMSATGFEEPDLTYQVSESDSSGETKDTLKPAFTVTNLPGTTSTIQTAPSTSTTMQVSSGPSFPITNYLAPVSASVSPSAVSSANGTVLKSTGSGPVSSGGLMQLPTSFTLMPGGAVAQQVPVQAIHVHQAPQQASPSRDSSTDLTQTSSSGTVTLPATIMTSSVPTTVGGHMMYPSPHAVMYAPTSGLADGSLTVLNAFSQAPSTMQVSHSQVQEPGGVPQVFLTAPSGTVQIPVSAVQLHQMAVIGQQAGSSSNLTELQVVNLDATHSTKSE
Experiment: native gel or EMSA; supershift with anti-SRF and anti-HA antibodies; 5 ug nuclear extract of NIH/3T3 cells transfected with Elk-1-HA; 32P end-labelled DUSP5 promoter probe with wild type CArG2 box and wild type proximal EBS; ternary complex on DNA

B1: HA tagged Elk-1 (protein, UniProt P19419 1-428)
chain: MDPSVTLWQFLLQLLREQGNGHIISWTSRDGGEFKLVDAEEVARLWGLRKNKTNMNYDKLSRALRYYYDKNIIRKVSGQKFVYKFVSYPEVAGCSTEDCPPQPEVSVTSTMPNVAPAAIHAAPGDTVSGKPGTPKGAGMAGPGGLARSSRNEYMRSGLYSTFTIQSLQPQPPPHPRPAVVLPSAAPAGAAAPPSGSRSTSPSPLEACLEAEEAGLPLQVILTPPEAPNLKSEELNVEPGLGRALPPEVKVEGPKEELEVAGERGFVPETTKAEPEVPPQEGVPARLPAVVMDTAGQAGGHAASSPEISQPQKGRKPRDLELPLSPSLLGGPGPERTPGSGSGSGLQAPGPALTPSLLPTHTLTPVLLTPSSLPPSIHFWSTLSPIAPRSPAKLSFQFPSSGSAQVHIPSISVDGLSTPVVLSPGPQKP
  binding: binds
